# Source: the supplement of paper PMC10849652
# Protein sequences, listed by entry. Tags and fused reporters are not part of them. Lines headed by an entry give the natural chain unless they say otherwise; changes in a name come on top.
# UniProt Q96AK3: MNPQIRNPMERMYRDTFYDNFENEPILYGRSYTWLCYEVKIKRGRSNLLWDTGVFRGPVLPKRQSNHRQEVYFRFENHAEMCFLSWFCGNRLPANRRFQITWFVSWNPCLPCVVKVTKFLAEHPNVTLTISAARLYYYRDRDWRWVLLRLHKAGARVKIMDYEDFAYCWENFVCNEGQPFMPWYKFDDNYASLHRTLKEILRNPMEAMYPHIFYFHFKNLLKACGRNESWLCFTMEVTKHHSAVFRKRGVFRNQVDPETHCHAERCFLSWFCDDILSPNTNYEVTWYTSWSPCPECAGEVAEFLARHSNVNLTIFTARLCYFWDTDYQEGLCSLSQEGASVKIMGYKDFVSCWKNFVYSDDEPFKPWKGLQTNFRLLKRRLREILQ
# UniProt Q3SXY8: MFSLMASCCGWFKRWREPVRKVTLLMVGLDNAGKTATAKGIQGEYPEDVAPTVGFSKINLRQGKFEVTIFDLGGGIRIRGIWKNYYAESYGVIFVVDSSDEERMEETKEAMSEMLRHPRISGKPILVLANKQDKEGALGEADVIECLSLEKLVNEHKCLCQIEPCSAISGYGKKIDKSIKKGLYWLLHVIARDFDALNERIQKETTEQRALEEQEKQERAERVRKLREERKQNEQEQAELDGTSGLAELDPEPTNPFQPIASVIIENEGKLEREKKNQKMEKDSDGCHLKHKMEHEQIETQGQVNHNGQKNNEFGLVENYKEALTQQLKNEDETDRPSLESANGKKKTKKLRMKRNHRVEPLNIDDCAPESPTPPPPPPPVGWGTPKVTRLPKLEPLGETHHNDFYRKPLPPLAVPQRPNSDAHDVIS
# UniProt Q66PJ3: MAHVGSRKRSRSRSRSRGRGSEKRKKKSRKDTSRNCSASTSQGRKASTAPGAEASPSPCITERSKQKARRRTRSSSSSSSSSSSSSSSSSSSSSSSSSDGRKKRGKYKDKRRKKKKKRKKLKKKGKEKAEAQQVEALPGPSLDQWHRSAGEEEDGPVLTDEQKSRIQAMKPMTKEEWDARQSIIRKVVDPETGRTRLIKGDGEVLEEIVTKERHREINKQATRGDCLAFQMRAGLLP
# UniProt P27695, whole entry, looked up: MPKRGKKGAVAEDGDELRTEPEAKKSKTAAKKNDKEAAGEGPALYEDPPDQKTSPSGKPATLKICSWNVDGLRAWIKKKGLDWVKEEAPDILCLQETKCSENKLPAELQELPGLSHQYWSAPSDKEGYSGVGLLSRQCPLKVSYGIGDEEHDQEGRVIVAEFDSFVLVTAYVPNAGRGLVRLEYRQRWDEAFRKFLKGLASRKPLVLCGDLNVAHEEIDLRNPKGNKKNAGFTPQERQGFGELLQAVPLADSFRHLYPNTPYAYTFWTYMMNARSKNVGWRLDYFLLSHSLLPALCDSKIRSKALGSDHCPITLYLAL
# UniProt P40616: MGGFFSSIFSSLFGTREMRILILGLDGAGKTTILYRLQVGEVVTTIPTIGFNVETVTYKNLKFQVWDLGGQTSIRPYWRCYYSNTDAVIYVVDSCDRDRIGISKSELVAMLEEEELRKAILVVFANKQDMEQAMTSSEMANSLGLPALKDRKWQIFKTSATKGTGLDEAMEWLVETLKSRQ
# UniProt P84085: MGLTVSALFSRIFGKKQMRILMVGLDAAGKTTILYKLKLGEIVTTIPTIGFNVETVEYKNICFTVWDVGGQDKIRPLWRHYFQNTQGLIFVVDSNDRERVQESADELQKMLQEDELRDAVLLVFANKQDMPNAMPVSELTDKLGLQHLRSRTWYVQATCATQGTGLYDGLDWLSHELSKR
# UniProt Q9NZN5: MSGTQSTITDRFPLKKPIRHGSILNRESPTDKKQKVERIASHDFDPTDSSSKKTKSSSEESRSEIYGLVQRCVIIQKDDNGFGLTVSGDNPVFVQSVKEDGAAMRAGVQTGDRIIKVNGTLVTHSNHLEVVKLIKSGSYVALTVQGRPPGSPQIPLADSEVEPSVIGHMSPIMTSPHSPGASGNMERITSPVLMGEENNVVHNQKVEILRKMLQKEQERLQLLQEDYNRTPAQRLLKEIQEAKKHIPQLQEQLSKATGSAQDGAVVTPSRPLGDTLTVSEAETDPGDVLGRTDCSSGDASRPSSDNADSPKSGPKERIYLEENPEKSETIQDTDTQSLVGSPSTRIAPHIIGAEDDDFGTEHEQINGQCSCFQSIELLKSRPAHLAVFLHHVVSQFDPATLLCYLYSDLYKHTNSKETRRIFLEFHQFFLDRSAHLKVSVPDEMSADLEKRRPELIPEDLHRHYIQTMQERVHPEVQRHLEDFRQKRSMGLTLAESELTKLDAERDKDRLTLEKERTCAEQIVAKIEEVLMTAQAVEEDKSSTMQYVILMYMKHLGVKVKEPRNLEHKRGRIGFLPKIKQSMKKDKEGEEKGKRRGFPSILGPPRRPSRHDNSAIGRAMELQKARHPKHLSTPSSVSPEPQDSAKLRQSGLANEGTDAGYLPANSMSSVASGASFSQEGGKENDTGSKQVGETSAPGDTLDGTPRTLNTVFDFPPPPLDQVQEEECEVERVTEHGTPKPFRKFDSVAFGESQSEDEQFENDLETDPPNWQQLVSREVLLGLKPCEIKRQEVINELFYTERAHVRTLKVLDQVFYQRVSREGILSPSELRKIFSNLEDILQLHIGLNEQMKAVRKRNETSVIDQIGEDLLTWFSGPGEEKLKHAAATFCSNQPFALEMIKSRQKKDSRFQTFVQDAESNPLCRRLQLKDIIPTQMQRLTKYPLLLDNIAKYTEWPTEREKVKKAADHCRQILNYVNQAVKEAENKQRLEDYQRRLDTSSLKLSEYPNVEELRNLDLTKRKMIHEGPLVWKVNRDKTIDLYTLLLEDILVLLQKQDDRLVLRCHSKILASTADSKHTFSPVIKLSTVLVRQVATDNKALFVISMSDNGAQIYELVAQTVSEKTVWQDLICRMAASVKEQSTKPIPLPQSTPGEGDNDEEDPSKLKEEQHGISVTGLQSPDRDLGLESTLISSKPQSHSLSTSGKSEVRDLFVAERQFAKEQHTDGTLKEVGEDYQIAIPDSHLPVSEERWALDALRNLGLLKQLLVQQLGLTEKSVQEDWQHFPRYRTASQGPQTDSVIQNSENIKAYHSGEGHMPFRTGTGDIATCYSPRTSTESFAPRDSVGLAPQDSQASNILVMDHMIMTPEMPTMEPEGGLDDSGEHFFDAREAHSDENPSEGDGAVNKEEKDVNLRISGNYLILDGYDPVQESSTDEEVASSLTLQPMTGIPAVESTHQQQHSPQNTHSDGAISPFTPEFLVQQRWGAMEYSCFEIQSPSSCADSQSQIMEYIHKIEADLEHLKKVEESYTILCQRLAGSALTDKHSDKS
# UniProt O14727: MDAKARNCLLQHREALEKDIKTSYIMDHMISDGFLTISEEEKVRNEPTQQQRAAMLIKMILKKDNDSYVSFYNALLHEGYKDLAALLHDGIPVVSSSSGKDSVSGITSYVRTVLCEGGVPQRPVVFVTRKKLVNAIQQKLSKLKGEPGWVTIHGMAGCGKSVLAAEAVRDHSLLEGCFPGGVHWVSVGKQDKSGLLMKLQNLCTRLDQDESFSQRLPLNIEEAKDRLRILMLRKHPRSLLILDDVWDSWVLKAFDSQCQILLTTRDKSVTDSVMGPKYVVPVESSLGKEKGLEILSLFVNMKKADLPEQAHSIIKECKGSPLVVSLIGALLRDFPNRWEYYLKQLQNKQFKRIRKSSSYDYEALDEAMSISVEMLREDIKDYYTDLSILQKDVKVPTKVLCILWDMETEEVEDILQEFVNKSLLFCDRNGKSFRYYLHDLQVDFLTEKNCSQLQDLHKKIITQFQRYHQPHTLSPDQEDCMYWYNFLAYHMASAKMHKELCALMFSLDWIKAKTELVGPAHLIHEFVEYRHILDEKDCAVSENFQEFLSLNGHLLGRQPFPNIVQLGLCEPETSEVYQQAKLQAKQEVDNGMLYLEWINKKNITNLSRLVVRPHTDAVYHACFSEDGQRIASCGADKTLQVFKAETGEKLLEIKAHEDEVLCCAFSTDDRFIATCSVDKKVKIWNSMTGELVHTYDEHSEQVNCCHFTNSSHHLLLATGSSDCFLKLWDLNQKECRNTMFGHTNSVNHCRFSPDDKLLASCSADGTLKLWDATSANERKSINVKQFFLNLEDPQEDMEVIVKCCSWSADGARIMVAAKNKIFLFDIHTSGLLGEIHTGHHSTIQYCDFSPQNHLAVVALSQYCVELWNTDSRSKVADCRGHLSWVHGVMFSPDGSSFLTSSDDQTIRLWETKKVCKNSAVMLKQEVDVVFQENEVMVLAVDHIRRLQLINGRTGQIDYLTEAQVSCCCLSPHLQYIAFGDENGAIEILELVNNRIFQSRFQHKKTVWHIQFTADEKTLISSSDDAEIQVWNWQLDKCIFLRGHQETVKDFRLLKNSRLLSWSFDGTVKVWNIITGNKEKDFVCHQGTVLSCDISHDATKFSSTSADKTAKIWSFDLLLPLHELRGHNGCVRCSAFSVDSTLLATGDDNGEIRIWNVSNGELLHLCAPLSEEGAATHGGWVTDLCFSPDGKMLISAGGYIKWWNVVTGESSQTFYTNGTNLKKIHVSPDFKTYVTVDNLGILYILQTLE
# UniProt P61204: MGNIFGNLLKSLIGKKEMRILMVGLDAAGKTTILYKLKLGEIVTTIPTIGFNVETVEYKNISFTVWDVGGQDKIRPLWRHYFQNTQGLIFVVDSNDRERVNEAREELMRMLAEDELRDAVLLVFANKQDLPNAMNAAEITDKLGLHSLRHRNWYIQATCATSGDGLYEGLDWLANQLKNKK
# UniProt Q96KC2: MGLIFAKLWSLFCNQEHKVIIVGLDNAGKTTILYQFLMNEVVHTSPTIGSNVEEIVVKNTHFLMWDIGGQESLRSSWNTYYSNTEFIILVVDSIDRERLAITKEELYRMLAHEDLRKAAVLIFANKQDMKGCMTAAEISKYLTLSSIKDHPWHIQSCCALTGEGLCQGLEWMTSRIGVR
# UniProt Q8IW19: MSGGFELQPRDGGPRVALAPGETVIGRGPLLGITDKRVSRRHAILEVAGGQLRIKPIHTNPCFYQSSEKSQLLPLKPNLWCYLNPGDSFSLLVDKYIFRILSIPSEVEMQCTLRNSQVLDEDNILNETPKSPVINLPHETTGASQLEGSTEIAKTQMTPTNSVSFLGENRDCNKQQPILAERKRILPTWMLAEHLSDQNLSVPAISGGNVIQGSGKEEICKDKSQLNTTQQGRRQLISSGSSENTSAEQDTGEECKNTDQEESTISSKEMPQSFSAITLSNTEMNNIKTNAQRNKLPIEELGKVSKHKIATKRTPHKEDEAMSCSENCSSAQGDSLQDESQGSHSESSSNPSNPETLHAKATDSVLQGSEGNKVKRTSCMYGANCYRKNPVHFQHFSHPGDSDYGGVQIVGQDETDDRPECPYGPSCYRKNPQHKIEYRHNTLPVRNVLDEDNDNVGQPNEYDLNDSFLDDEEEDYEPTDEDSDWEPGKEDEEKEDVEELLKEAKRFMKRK
# UniProt Q8IWW6: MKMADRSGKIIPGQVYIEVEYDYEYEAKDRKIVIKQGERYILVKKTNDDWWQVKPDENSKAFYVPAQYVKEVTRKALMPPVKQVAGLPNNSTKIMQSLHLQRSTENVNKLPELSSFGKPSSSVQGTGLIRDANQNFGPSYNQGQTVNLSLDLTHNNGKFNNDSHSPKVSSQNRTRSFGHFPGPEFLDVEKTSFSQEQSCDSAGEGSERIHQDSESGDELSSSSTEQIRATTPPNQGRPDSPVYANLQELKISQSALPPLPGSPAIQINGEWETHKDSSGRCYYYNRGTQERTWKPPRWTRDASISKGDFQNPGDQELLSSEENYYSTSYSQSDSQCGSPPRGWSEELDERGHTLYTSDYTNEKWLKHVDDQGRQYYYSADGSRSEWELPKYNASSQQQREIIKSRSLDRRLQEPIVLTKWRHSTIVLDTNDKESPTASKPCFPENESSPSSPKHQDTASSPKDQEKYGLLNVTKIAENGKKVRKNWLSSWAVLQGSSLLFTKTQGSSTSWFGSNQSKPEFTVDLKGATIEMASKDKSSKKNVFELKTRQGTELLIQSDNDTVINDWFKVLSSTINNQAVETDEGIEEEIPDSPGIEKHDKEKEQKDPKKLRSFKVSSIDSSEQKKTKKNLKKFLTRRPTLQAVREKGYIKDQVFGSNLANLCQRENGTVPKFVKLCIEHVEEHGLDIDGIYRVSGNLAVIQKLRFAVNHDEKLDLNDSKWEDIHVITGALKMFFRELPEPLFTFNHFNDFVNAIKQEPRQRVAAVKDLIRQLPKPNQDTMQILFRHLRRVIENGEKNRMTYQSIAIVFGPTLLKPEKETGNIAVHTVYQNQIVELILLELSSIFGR
# UniProt Q8N2F6: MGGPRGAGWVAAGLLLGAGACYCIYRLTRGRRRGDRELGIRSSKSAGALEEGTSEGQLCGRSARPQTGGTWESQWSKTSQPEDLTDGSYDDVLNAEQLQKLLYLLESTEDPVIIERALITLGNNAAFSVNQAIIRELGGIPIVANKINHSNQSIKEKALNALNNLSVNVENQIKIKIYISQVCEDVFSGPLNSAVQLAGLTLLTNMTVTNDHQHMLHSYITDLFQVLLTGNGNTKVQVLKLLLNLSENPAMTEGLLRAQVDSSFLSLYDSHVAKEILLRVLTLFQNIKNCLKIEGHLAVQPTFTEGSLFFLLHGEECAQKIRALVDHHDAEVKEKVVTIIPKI
# The list shows a part of the results.
# Tests used:
# Test in all cases: log2 fold change, soluble protein after heating vs DMSO (PISA); higher = thermal stabilisation; K562 lysate, 10 uM; active = over 0.2 and 3.5 SD of the protein, either way, in both replicates (recomputed)
# [1] = compound: NCC(=O)Nc1ccc(-n2nc(C(F)(F)F)cc2-c2ccc3c(ccc4ccccc43)c2)cc1
# How it was run: (§1)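 Thermal stability, expressed as log-two fold change relative to solvent controls, is given from duplicates. Crude K562 extract in PBS pH 7.4 with 1 mM MgCl2, at 1 mg/mL protein, was treated with 10 μM compound for 30 min and heated in aliquots for 3 min across 48°C-58°C. After pooling, adjustment to 0.5% NP-40 at 4°C and centrifugation at 21,000xg for 90 min, supernatant protein was measured by TMTpro 16plex LC-MS/MS with channel sums equalised.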
# vorinostat = compound: O=C(CCCCCCC(=O)Nc1ccccc1)NO [vorinostat]
# How it was run: as §1
# silmitasertib = compound: O=C(O)c1ccc2c(c1)nc(Nc1cccc(Cl)c1)c1ccncc12 [silmitasertib]
# How it was run: as §1
# [2] = compound: O=C1NC(=O)C(c2cnc3ccccn23)=C1c1cn2c3c(cc(F)cc13)CN(C(=O)N1CCCCC1)CC2
# How it was run: as §1
# entospletinib = compound: c1cn2cc(-c3ccc4cn[nH]c4c3)nc(Nc3ccc(N4CCOCC4)cc3)c2n1 [entospletinib]
# How it was run: as §1
Target,log2 fold change [1],log2 fold change (vorinostat),log2 fold change (silmitasertib),log2 fold change [2],log2 fold change (entospletinib)
APOBEC3D (UniProt Q96AK3),inactive: 0.057,inactive: 0.053,inactive: -0.071,inactive: 0.035,inactive: -0.011
ARL13B (UniProt Q3SXY8),inactive: 0.01,inactive: -0.186,inactive: -0.024,inactive: -0.064,–
ASAH1 isoform 2 (UniProt Q13510),inactive: -0.036,inactive: -0.111,inactive: -0.03,inactive: -0.043,inactive: 0.051
ARL6IP4 (UniProt Q66PJ3),inactive: 0.049,inactive: 0.011,inactive: 0.002,inactive: -0.001,inactive: -0.084
ARPIN isoform 2 (UniProt Q7Z6K5),inactive: 0.03,inactive: -0.099,inactive: 0.039,inactive: -0.011,inactive: -0.233
APEX1 (UniProt P27695),inactive: 0.007,inactive: -0.15,inactive: 0.026,inactive: -0.001,inactive: -0.002
ARHGEF11 isoform 2 (UniProt O15085),inactive: 0.026,inactive: -0.11,inactive: 0.044,inactive: 0.005,inactive: -0.042
ARL6IP1 (UniProt Q15041),inactive: -0.035,inactive: 0.044,inactive: 0.002,inactive: -0.047,inactive: 0.018
ARL1 (UniProt P40616),inactive: 0.017,active: -0.293,inactive: -0.048,inactive: 0.027,inactive: 0.034
ARF5 (UniProt P84085),inactive: -0.004,inactive: -0.006,inactive: -0.034,inactive: -0.095,inactive: 0.015
ARPC4 isoform 3 (UniProt P59998),inactive: -0.025,inactive: 0.109,inactive: 0.016,inactive: -0.059,inactive: 0.006
ARHGEF12 (UniProt Q9NZN5),inactive: 0.003,inactive: -0.137,inactive: 0.01,inactive: -0.055,inactive: -0.021
ARSB (UniProt P15848),inactive: -0.006,inactive: 0.094,inactive: 0.034,inactive: 0.01,inactive: 0.018
APAF1 (UniProt O14727),inactive: 0.021,active: -0.292,inactive: 0.032,inactive: 0.057,inactive: 0.032
ARHGAP35 (UniProt Q9NRY4),inactive: 0.014,inactive: -0.101,inactive: 0.018,inactive: 0.012,inactive: 0.015
ARF3 (UniProt P61204),inactive: -0.015,inactive: 0.107,inactive: -0.029,inactive: -0.002,inactive: -0.005
ARID1B isoform 3 (UniProt Q8NFD5),inactive: -0.015,inactive: -0.088,inactive: 0.035,inactive: 0.035,inactive: -0.011
ARL5B (UniProt Q96KC2),inactive: -0.025,inactive: 0.121,inactive: -0.2,inactive: -0.042,inactive: 0.02
ARNT (UniProt P27540),inactive: 0.051,inactive: -0.07,inactive: -0.001,inactive: -0.005,inactive: -0.02
ARAF (UniProt P10398),inactive: -0.072,active: -0.487,inactive: -0.023,inactive: 0.019,inactive: -0.011
ARRB1 isoform 2 (UniProt P49407),inactive: 0.011,inactive: -0.004,inactive: -0.031,inactive: 0.194,inactive: 0.232
APLF (UniProt Q8IW19),inactive: -0.081,inactive: -0.118,inactive: -0.037,inactive: -0.006,inactive: -0.036
ARHGAP12 (UniProt Q8IWW6),inactive: 0.15,inactive: 0.09,inactive: -0.067,inactive: 0.026,inactive: 0.024
ARMC10 (UniProt Q8N2F6),inactive: 0.015,inactive: -0.041,inactive: -0.029,inactive: 0.021,inactive: 0.024

# Limited to log2 fold change (entospletinib), log2 fold change [2] and log2 fold change (vorinostat) (2 entries from above):
Target	log2 fold change (entospletinib)	log2 fold change [2]	log2 fold change (vorinostat)
ARF5 (UniProt P84085)	inactive: 0.015	inactive: -0.095	inactive: -0.006
ARPC4 isoform 3 (UniProt P59998)	inactive: 0.006	inactive: -0.059	inactive: 0.109
